Laboratory results from patent publication US20180094250.

The chains behind the UniProt entries cited, without tags or fusion partners. Where a name states a change or a piece, a line headed by the entry shows the natural chain unless it says otherwise.
UniProt P61875: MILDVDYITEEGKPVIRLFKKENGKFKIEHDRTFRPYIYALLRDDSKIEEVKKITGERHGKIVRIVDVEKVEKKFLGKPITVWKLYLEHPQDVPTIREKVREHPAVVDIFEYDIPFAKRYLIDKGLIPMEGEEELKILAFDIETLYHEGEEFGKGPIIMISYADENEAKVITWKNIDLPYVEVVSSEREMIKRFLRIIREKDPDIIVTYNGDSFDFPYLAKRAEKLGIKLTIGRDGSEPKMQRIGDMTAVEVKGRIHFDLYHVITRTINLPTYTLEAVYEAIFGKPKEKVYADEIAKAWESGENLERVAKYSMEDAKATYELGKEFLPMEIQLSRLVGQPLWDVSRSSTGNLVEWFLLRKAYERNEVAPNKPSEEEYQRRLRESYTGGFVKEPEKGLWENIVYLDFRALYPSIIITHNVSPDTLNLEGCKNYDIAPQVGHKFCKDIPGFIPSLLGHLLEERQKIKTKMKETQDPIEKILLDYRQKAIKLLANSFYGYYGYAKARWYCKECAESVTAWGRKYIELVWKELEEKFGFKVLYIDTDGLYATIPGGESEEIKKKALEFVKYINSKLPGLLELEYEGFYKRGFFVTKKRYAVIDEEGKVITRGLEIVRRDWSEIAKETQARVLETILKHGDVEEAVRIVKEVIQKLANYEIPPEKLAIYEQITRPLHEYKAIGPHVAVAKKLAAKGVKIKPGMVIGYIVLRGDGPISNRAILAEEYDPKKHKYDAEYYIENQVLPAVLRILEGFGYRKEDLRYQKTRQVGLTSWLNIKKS

What was measured:
[1] = target: ECA001G (citraconic anhydride-modified ECA001, not activated) (UniProt P61875); assay: activity assay; settings: no detectable polymerase activity before activation; binding not measured; purified recombinant protein; label: 5' BHQ1, FAM on penultimate dT; folded or branched DNA
[2] = target: ECA001 modified with 2,3-diphenylmaleic anhydride, not activated (UniProt P61875); assay: activity assay; settings: enzyme inactivated by DPMA; binding not measured; purified recombinant protein; label: 5' BHQ1, FAM on penultimate dT; folded or branched DNA
[3] = target: ECA001G (citraconic anhydride-modified ECA001, not activated) (UniProt P61875); assay: enzyme reaction in vitro; settings: no detectable exonuclease activity before activation; binding not measured; purified recombinant protein; label: 5' BHQ, FAM on 3'-terminal dT; folded or branched DNA
[4] = target: ECA001 modified with 2,3-diphenylmaleic anhydride, not activated (UniProt P61875); assay: enzyme reaction in vitro; settings: enzyme inactivated by DPMA; binding not measured; purified recombinant protein; label: 5' BHQ, FAM on 3'-terminal dT; folded or branched DNA

| Sequence | activity on this sequence [1] | activity on this sequence [2] | activity on this sequence [3] | activity on this sequence [4] |
| --- | --- | --- | --- | --- |
| ATCATCATATCATCAACTGGCCGTCGTTTTACATATGTAAAACGACGGCCAGTT [Polsub14] | not active | not active |  |  |
| TTTTCTGGCCGTCGTTTTACATATGTAAAACGACGGCCAGT [Exo-MM HP] |  |  | not active | not active |

A negative result means that nothing was seen under these conditions.
